No constants are given. Whether binding was seen depends on the method and setting. For some of these results: Binding seen in cells or lysates may run through a third protein. Some entries that bind do so weakly or less than the wild type. Sequences can lack the tags named with a protein.
What was measured:
[1] = target: GST-LC3C (UniProt Q9BXW4); assay: pull-down; only the target purified
[2] = target: LC3C V26G (UniProt Q9BXW4); assay: recruitment of LIR-GFP or gProbe to mRFP-mATG8-containing autophagic membranes (A:C ratio), microscopy; LIR(X)-GFP or gProbe-X co-expressed with one mRFP-mATG8 in HKO HeLa cells; 100 nM BafA1 in EBSS for 2 h; fixed in 4% PFA; autophagosome:cytosol GFP ratio normalized to GFP-expressing cells
[3] = target: LC3C K32/F33 to Q/H mutant (UniProt Q9BXW4); assay: as above
[4] = target: mRFP-LC3C (UniProt Q9BXW4); assay: as above
[5] = target: GST-GABARAPL2 (UniProt P60520); assay: pull-down; purified GST-mATG8 on glutathione agarose beads, lysate of HEK293T cells expressing LIR-GFP; overnight at 4°C; 50 mM Tris-HCl pH 7.5, 150 mM NaCl, 2 mM EDTA, 1% Triton X-100; anti-GFP blot; only the target purified
[6] = target: mRFP-GABARAP (UniProt O95166); assay: recruitment of LIR-GFP or gProbe to mRFP-mATG8-containing autophagic membranes (A:C ratio), microscopy; LIR(X)-GFP or gProbe-X co-expressed with one mRFP-mATG8 in HKO HeLa cells; 100 nM BafA1 in EBSS for 2 h; fixed in 4% PFA; autophagosome:cytosol GFP ratio normalized to GFP-expressing cells
[7] = target: mRFP-GABARAPL2 (UniProt P60520); assay: as above

Chains of the proteins cited; added tags and fusions are not shown. Lines headed by an entry give the natural chain unless they say otherwise; changes in a name come on top. A line that says so, or that is headed by a name, gives the form on record, which may keep a tag or linker. Residues count along the entry.
mRFP-LC3C (Q9BXW4, residues 1-126): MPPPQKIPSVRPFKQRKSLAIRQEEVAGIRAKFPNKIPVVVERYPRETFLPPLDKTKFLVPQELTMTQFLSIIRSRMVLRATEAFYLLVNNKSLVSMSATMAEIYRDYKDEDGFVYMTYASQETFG
LC3C V26G (Q9BXW4, form named): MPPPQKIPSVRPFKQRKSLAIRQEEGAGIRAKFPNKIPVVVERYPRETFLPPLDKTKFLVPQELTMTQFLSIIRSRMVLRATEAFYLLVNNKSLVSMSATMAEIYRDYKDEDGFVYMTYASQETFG
LC3C K32/F33 to Q/H mutant (Q9BXW4, form named): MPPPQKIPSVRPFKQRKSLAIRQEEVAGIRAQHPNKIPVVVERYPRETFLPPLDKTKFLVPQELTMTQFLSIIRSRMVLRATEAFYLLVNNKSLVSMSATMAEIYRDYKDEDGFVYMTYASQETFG
UniProt P60520: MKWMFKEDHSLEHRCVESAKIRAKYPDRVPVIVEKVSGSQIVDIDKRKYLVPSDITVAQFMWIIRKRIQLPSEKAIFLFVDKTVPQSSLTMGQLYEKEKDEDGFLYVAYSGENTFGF

binding [1] | binding [2] | binding [3] | binding [4] | binding [5] | binding [6] | binding [7] | Binder
binds | binds | binds | binds | – | – | – | FVSEEDEVDGTLIIDLPDSYAAPPS (domain or fragment) [LIR(TP[T])-GFP]
– | – | – | – | binds | binds weakly | binds | LQFEIDDEMEPLYNQAKQMRYGDY (domain or fragment) [LIR(Sp)-GFP]
